# Assay results: publication PMC7862700
# Some of the results follow. The exact form of the protein is not confirmed.
# Molecular target: T1, ETV4 (UniProt P43268)
# T1 sequence: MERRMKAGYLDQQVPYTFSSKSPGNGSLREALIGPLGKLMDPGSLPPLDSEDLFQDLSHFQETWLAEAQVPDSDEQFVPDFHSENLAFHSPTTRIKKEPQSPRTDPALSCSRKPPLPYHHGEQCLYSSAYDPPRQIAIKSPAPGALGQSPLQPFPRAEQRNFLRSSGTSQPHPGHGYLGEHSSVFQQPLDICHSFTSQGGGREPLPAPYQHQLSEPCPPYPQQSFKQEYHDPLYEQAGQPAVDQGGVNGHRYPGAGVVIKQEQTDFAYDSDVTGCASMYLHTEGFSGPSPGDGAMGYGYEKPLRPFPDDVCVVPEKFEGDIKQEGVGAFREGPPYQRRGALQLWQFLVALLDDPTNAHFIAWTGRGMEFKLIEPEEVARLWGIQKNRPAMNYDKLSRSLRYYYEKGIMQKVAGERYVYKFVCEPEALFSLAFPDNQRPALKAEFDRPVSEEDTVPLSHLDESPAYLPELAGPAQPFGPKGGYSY
# Test: DAPPL (digital affinity profiling via proximity ligation, sequencing)
# Conditions: 10 mM Tris-HCl pH 7.5, 50 mM NaCl, 1 mM DTT, 4% glycerol, room temperature, 30 min; GST-TFs on glutathione beads, 16-mer random dsDNA library, 0.1% …; high values mean tight binding; double strand, one strand shown; scale: fold enrichment (6-mer frequency, TF over GST control)
row,Sequence,binding signal
1,GATCTC,1.4
2,GCTGAA,1.15
3,AAAAGA,1.12
4,CCCCCG,1.19
5,TCCTCT,1.78
6,GAAGTT,1.71
7,CTCCGC,1.58
8,GGGCTT,1.35
9,CTCCGG,1.63
10,GTTCTT,1.26
11,TCGTAC,1.1
12,CCTATT,1.47
13,CTACTT,2.03
14,CACACT,1.26
15,GATGGT,1.2
16,TGTTAT,1.4
17,ACCCTA,1.22
18,GAACCT,1.14
19,AATAAG,1.21
20,GGAATT,1.12

# A run of entries from the list above:
row,Sequence,binding signal
10,GTTCTT,1.26
11,TCGTAC,1.1

# (cont.)

row,Sequence,binding signal
1,TCCAAT,1.19
2,CTCTGC,1.67
3,CGATTA,1.1
4,ATGCGG,1.1
5,TTGTGG,1.35
6,GCCTAT,1.32
7,GGCTTC,1.69
8,CACAAT,1.15
9,CTCGAT,1.36
10,TAACCT,1.37
11,TGCCTG,1.18
12,CTATAA,1.28
13,TAATTG,1.39
14,CAACAA,1.05
15,GTTACG,1.02
16,GTTCAT,1.14
17,GCACCC,1.19
18,TCCCCA,1.35
19,CATATT,1.24
